According to article PMC5175174:
No constants are given. Whether binding was seen depends on the method and setting.

Chains of the proteins cited; added tags and fusions are not shown. Residues count along the entry.
UniProt A0A0R6L508, residues 219-541: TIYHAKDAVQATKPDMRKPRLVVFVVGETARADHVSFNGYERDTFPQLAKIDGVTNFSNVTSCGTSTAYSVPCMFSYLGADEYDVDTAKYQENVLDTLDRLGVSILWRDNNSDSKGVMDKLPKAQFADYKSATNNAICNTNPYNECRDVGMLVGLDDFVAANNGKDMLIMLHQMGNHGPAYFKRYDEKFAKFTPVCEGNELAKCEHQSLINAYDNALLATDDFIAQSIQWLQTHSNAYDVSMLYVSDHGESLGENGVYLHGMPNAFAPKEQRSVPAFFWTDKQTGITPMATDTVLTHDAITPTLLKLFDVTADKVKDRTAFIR

Target: C-terminal catalytic domain of MCR-1
Experiment: SEC-MALS; printed only as 'multi-angle light scattering method' (Fig. S1); conditions not told in the text shown; both purified

In the case of “C-terminal catalytic domain of MCR-1 (from UniProt A0A0R6L508 219-541) (domain or fragment)”, the binding is reported as “no binding”.
